Source: ChEMBL document CHEMBL1159187, “Novel polyamine derivatives as potent competitive inhibitors of Trypanosoma cruzi trypanothione reductase” (Bioorg Med Chem Lett, 1995)

Sequences of proteins named here, by UniProt entry; tags and fusion partners are left off. A change or cut given only in a name is not applied to a line headed by its entry.
UniProt P28593: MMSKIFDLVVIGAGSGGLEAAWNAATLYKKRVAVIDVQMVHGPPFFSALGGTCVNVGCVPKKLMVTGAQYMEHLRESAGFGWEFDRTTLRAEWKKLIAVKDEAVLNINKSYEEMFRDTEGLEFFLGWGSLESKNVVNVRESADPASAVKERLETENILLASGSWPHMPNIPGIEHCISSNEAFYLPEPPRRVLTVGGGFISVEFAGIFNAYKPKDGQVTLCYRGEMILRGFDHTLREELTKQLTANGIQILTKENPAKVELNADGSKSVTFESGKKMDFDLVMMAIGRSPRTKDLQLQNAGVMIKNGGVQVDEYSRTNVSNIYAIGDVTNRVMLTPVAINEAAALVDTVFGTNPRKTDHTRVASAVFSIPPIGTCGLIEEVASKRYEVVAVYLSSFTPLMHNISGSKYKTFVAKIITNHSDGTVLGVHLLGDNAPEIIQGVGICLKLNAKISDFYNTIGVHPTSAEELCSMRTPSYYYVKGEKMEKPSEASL

Target: Trypanothione reductase (Trypanosoma cruzi, UniProt P28593)
Experiment: Compound was evaluated for the competitive inhibition of trypanothione reduction by recombinant Trypanothione reductase from Trypanosoma cruzi

## CN(C)CCCN1c2ccccc2CCc2ccc(Cl)cc21 [CLOMIPRAMINE]
  Ki: 6.5 µM
